## Library screening results

Values are the deposited “Percent Effect”, in %.
The record does not define 0% and 100%; most values in the screen are far below 50% and negative numbers occur (in some assays of this library far below -100).
This is an unselected part of the compounds tested.

A: 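Whole-cell assay for inhibitors of Mycobacterium tuberculosis growth, labelled Cornell in the record; the read-out is not stated. The concentration is filed as 10 mM, unlikely as a test dose, so the dose is not known. The record gives no direction; compounds strong in two other growth screens of this library score well above the rest, so higher reads as stronger inhibition. About 53,000 compounds were tested under these conditions; 1.7% (about 900) showed 50% or more at least once.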
B: 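Assay on Mycobacterium tuberculosis, filed only as a heat shock assay from Cornell; the read-out is not stated. The concentration is filed as 10 mM, unlikely as a test dose, so the dose is not known. Direction is inferred from retests: higher values go with stronger inhibition. Of about 69,000 compounds tested this way, about 930 (1.4%) reached 50% or more in at least one test.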

Result for CS(=O)(=O)N1CC2(CCN(C3COC3)C2)Cc2ccccc21 (stereo not drawn) was B: 7.696%. Result for CN1[C@H](CO)C[C@H](CNCc2ccc(Cl)c(F)c2)[C@@H]1c1ccccc1F was B: -5.89%. CCCc1nnc(NC2CCN(C3CCOCC3)CC2)o1 gave A: 11.5%; B: 33.11%. Result for Cn1ncc2c1NC(=O)CC2c1c(Cl)cccc1Cl (stereo not drawn) was A: 29.01%; B: 9.932%. Result for O=C(Cc1c[nH]c2ccccc12)N1CCN(C(=O)c2ccoc2)CC1 was A: -1.862%; B: 3.224%. O=C1CCCN1CCCC(=O)N1CCC2(CC1)[C@H](O)C[C@@H]2O gave A: -15.63%; B: 14.12%. Result for O=C(NCC1CCOC1)c1csc(-c2ccc(Cl)cc2)n1 (stereo not drawn) was A: 25.26%; B: 23.4%.

CC(C1CCN(Cc2ccccc2OC(F)F)CC1)N1CCOCC1 (stereo not drawn) gave A: -0.9199%; B: 90.2%. For Cl.c1cnc(Nc2cc(CCC3CCCNC3)ccn2)cn1 (stereo not drawn) the result was A: -2.428%; B: 5.615%. [H][C@@]12CN(Cc3cccc(Cl)c3)CC[C@]1([H])N(C(C)=O)C[C@H]2c1ccsc1 gave B: 5.766%. Cc1ccc(CN2Cc3c(C(=O)N4CCN(C)CC4)nn(C)c3C2)s1.O=C(O)C(F)(F)F.O=C(O)C(F)(F)F.O=C(O)C(F)(F)F gave A: -2.835%; B: -29.74%. Result for [H][C@@]12CN(C(=O)c3ccccc3C)C[C@]1([H])[C@H]2CN(C)CCc1ccccn1 was A: 19.6%; B: -40.8%. For CCN1CCC2(C=C(C(=O)N(C)C)c3ccccc32)CC1.O=C(O)C(F)(F)F the result was A: -10.98%; B: 10.01%. With CC(C)c1noc(CN2CCN(C(=O)c3ccccc3F)CC2)n1 the screen gave A: 22.17%; B: 5.215%.

With Fc1ccc(Br)c(NCc2nnsc2Cl)c1 the screen gave B: -17.88%. CCn1nc(C)c2nnn(CC(=O)Nc3c(C)cccc3C)c(=O)c21 read B: -18.88%. CN(Cc1cc2n(n1)CCNC2)Cc1n[nH]c2c1CCC2 read A: 27.8%; B: -1.948%. Result for O=C1CC2(CCN(CCCF)CC2)CN1Cc1cc(F)cc(F)c1 was A: -11.47%; B: 4.222%. Result for Cc1cccc(C)c1NC(=O)c1cccc(N(C)S(C)(=O)=O)c1C was A: 5.548%; B: 4.189%. With Cc1nn(-c2ccccc2)c(C)c1CNC(=O)NC1CC1 the screen gave B: 14.96%. Result for CS(=O)(=O)c1ccc(NCCC2CCCO2)c(S(C)(=O)=O)c1 (stereo not drawn) was A: -16.76%; B: 15.84%.

With Cc1ncsc1CNC(=O)N(CCCO)C1CCc2ccccc21 (stereo not drawn) the screen gave B: -1.943%. For [H][C@@]12CN(Cc3ccc(-c4ccn[nH]4)s3)C[C@]1([H])[C@H]2C(=O)NC1CC1 the result was A: 12.41%; B: -24.47%. With [H][C@@]12C[C@@H](c3nnc(C4CC4)o3)O[C@]1([H])CN(C(=O)Cc1ccsc1)C2 the screen gave A: -10.07%; B: -11.49%. O=C(c1ccc2cc[nH]c2c1)N1CCCN(Cc2cscn2)CC1 read B: -12.47%. OCC(O)CSCc1cn(-c2ccc(Cl)c(Cl)c2)nn1 (stereo not drawn) read B: 6.528%. For CC(C)N1CCCC(Cc2nccnc2Cl)CC1 (stereo not drawn) the result was A: -2.918%; B: -0.756%. Cn1cccc1CN(C(=O)Cc1cccs1)C1CC1 read A: 91.3%; B: 7.647%.

CCS(=O)(=O)NCc1cccnc1N1CCCC(O)C1 (stereo not drawn) read A: -6.353%; B: 8.404%. With O=C(Cn1cnc(NC(=O)CC2CCCC2)n1)NCc1ccccc1 the screen gave B: 2.829%. For O=C(O)C(F)(F)F.[H][C@@]12CN(C)C[C@]1(C(=O)NCC1CC1)CCCN2c1ncccn1 the result was A: -0.08683%; B: 35.52%. For CC(O)CN1CCN(C(=O)c2cnn(-c3ccccc3F)c2)CC1 (stereo not drawn) the result was A: 12%; B: -27.78%. O=C(O)C(F)(F)F.O=C(O)C(F)(F)F.c1ccc(OCc2n[nH]c3c2CN(CC2CC2)C3)nc1 gave A: 10.95%; B: -20.16%. COc1ccc(Cl)cc1NCC(=O)NCCNc1cnccn1 read A: 22.97%; B: 7.114%. For Cc1nc(CN2Cc3nccn3CC(CN3CCCC3)C2)cs1.O=C(O)C(F)(F)F.O=C(O)C(F)(F)F (stereo not drawn) the result was A: 6.673%; B: -27.51%.

CN(Cc1noc(C2CC2)n1)C1CCN(CC(=O)N2CCOCC2)C1 (stereo not drawn) gave A: -11.78%; B: -13.54%. With O=C(O)C(F)(F)F.[H][C@@]12CCN(c3ccc(C)nn3)[C@@]1([H])CCN2C(=O)Cc1ccccc1 the screen gave A: -0.7229%; B: -0.5733%.

Once more, the final 3:

* Cc1nc(CN2Cc3nccn3CC(CN3CCCC3)C2)cs1.O=C(O)C(F)(F)F.O=C(O)C(F)(F)F (stereo not drawn) : A: 6.673%; B: -27.51%
* CN(Cc1noc(C2CC2)n1)C1CCN(CC(=O)N2CCOCC2)C1 (stereo not drawn) : A: -11.78%; B: -13.54%
* O=C(O)C(F)(F)F.[H][C@@]12CCN(c3ccc(C)nn3)[C@@]1([H])CCN2C(=O)Cc1ccccc1 : A: -0.7229%; B: -0.5733%

Source: ChEMBL document CHEMBL3988442, “University of Dundee, Small-Polar-MMV Screening Library” (2021).